Only a part is listed here, and it is no random draw. At the low end of the ranking the order means little.
The sequences below were run against T1, FEV (UniProt Q99581) (assay: DAPPL (digital affinity profiling via proximity ligation, sequencing)). Details: 10 mM Tris-HCl pH 7.5, 50 mM NaCl, 1 mM DTT, 4% glycerol, room temperature, 30 min; GST-TFs on glutathione beads, 16-mer random dsDNA library, 0.1% …; high values mean tight binding; double strand, one strand shown; scale: fold enrichment (6-mer frequency, TF over GST control).
T1 sequence: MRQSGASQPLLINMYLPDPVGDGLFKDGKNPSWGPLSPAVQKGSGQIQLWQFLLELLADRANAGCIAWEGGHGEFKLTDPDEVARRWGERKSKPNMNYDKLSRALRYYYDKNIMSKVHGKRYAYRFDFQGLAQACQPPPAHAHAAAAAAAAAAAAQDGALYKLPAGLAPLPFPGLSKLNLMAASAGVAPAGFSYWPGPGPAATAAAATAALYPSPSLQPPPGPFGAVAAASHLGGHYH

Protein sequences, listed by entry. Tags and fused reporters are not part of them. Lines headed by an entry give the natural chain unless they say otherwise; changes in a name come on top.
UniProt O43186: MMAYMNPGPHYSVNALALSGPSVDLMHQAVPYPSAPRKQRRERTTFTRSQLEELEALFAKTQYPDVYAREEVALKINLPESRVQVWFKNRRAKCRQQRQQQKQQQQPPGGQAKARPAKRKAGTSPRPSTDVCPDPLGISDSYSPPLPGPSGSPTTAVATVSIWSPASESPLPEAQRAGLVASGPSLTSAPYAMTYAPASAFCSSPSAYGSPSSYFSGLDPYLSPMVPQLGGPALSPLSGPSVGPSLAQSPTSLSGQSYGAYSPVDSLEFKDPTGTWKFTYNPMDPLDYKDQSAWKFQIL

Sequence | binding signal
GCAGGG | 0.673
GCAGTC | 0.435
CTAGTC | 0.704
GCTGGG | 0.761
CCAGTC | 0.259
CGGGGC | 0.574
GACGAG | 0.513
ACCGTG | 0.239
GCGGAC | 0.724
GGCCGA | 0.747
GGTGAC | 0.833
AGACAC | 0.755
TGGACG | 0.815
GGTAAG | 0.683
CGTGTC | 0.765
GAGCAT | 0.764
AGGAGT | 0.328
GGGTGC | 0.723
GGTTAG | 0.752
CCGTTG | 0.831

Sequence | binding signal
CAGGGA | 0.503
TGGGGG | 0.716
GGGGTT | 0.842
TGTGGG | 0.755
CGGACG | 0.499
AGTAGG | 0.665
GTCTGA | 0.812
CGCATG | 0.615
AAGACG | 0.748
CAGAGC | 0.795
TCGGTG | 0.514
CGCAAG | 0.813
AGGTGA | 0.537
ACGAGG | 0.74
AGACGA | 0.715
ATCGGA | 0.477
GATAGG | 0.771
GGCGGA | 0.417
GATAGA | 0.769

Each sequence was assayed against CRX (UniProt O43186) in the same assay as above. Details: 10 mM Tris-HCl pH 7.5, 50 mM NaCl, 1 mM DTT, 4% glycerol, room temperature, 30 min; GST-TFs on glutathione beads, 16-mer random dsDNA library, 0.1% …; high values mean tight binding; double strand, one strand shown; scale: fold enrichment (6-mer frequency, TF over GST control).

Sequence | binding signal
GCAGGG | 0.538
GCAGTC | 0.338
CTAGTC | 0.787
GCTGGG | 0.67
CCAGTC | 0.239
CGGGGC | 0.449
GACGAG | 0.415
ACCGTG | 0.217
GCGGAC | 0.482
GGCCGA | 0.723
GGTGAC | 0.532
AGACAC | 0.657
TGGACG | 0.683
GGTAAG | 0.823
CGTGTC | 0.551
GAGCAT | 0.743
AGGAGT | 0.307
GGGTGC | 0.502
GGTTAG | 0.723
CCGTTG | 0.693

Sequence | binding signal
CAGGGA | 0.52
TGGGGG | 0.655
GGGGTT | 0.795
TGTGGG | 0.725
CGGACG | 0.276
AGTAGG | 0.576
GTCTGA | 0.671
CGCATG | 0.562
AAGACG | 0.868
CAGAGC | 0.734
TCGGTG | 0.443
CGCAAG | 0.677
AGGTGA | 0.476
ACGAGG | 0.613
AGACGA | 0.73
ATCGGA | 0.551
GATAGG | 0.825
GGCGGA | 0.246
GATAGA | 0.809

These sequences were tested against T2, ELF5 (UniProt Q9UKW6-2) in the same assay as above. Details: 10 mM Tris-HCl pH 7.5, 50 mM NaCl, 1 mM DTT, 4% glycerol, room temperature, 30 min; GST-TFs on glutathione beads, 16-mer random dsDNA library, 0.1% …; high values mean tight binding; double strand, one strand shown; scale: fold enrichment (6-mer frequency, TF over GST control).
T2 sequence: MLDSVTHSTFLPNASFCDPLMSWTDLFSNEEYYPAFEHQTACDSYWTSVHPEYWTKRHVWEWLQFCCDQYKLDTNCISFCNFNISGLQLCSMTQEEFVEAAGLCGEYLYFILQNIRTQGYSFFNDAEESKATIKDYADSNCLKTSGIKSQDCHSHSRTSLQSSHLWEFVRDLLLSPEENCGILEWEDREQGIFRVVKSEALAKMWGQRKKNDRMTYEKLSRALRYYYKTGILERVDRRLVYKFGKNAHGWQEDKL

Sequence | binding signal
GCAGGG | 0.63
GCAGTC | 0.452
CTAGTC | 0.755
GCTGGG | 0.764
CCAGTC | 0.245
CGGGGC | 0.555
GACGAG | 0.466
ACCGTG | 0.246
GCGGAC | 0.661
GGCCGA | 0.684
GGTGAC | 0.756
AGACAC | 0.782
TGGACG | 0.811
GGTAAG | 0.824
CGTGTC | 0.814
GAGCAT | 0.69
AGGAGT | 0.349
GGGTGC | 0.777
GGTTAG | 0.735
CCGTTG | 0.881

Sequence | binding signal
CAGGGA | 0.618
TGGGGG | 0.726
GGGGTT | 0.823
TGTGGG | 0.801
CGGACG | 0.492
AGTAGG | 0.713
GTCTGA | 0.756
CGCATG | 0.638
AAGACG | 0.789
CAGAGC | 0.762
TCGGTG | 0.509
CGCAAG | 0.769
AGGTGA | 0.513
ACGAGG | 0.788
AGACGA | 0.673
ATCGGA | 0.384
GATAGG | 0.775
GGCGGA | 0.408
GATAGA | 0.796

From PMC7862700
